Consider 47 sequences from publication PMC7862700.

This is a selection; strong and weak results do not stand in their true shares. For part of these data: At the low end of the ranking the order means little.

Common to all, as to assay: DAPPL (digital affinity profiling via proximity ligation, sequencing)
What all share (conditions): 10 mM Tris-HCl pH 7.5, 50 mM NaCl, 1 mM DTT, 4% glycerol, room temperature, 30 min; GST-TFs on glutathione beads, 16-mer random dsDNA library, 0.1% …; high values mean tight binding; double strand, one strand shown; scale: fold enrichment (6-mer frequency, TF over GST control)

One test has as its target T1, ELK3 (UniProt P41970).
T1 sequence: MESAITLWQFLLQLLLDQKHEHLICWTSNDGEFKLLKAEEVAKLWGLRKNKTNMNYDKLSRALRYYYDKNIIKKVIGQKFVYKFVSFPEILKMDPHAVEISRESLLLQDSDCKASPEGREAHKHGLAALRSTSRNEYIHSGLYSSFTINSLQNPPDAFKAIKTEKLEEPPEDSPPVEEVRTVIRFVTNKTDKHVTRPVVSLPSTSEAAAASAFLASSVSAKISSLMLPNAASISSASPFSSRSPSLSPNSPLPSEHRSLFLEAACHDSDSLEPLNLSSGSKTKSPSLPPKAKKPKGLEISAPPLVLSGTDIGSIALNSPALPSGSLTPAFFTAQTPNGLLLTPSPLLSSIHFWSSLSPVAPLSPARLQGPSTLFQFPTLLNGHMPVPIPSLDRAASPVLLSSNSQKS

A further test has as its target T2, SPIC (UniProt Q8N5J4).
T2 sequence: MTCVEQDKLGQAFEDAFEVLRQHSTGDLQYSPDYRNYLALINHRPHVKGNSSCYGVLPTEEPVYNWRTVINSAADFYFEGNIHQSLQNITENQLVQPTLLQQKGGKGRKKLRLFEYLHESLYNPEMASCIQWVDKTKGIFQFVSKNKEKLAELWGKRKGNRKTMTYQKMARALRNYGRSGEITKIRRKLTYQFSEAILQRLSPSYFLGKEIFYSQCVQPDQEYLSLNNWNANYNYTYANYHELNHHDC

For a further test, the target named is T3, ETS2 (UniProt P15036).
T3 sequence: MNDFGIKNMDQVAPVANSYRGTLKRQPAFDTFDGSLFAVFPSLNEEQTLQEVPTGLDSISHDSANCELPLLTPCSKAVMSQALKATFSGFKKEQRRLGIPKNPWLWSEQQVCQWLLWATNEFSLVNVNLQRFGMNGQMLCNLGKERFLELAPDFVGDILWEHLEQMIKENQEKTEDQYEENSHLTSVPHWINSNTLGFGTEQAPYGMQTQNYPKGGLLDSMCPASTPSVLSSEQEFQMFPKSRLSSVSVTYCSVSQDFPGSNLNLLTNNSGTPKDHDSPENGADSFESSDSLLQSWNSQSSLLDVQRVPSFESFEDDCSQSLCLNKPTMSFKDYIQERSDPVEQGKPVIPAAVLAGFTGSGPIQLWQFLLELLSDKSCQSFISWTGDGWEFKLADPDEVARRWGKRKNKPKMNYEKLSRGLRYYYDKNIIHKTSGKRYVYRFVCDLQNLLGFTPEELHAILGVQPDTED

The target in the next test is T4, ETV3 (UniProt P41162-2).
T4 sequence: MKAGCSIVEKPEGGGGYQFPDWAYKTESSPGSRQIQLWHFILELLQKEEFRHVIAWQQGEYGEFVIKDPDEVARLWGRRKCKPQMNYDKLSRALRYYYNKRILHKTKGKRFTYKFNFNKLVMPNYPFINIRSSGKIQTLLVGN

GCTTAG: the binding signal with ELK3 stood at 0.967; in the test with SPIC it was 1.12; in the test with ETS2 it was 1.11; with ETV3, 1.19.

GACCTA: the results for the binding signal with SPIC and in the test with ETS2 were 1.18 and 1.19, respectively.

Turning to CCGTCC, the binding signal with SPIC turned out to be 1.39; with ETS2 it was 1.38.

With TTCATA, the binding signal in the test with SPIC stood at 0.987; with ETS2 it was 1.15.

As to TAAAGA, the values for the binding signal with SPIC and with ETS2 were 0.996 and 1.08, respectively.

In the case of TATAAG, the binding signal in the test with SPIC was 1.1; with ETS2 it was 1.17; with ETV3, 1.15.

On to CCCGTT, for which the binding signal was found to be 1.18 in the test with ELK3, 1.07 in the test with SPIC and 1.1 with ETS2.

As to CGGCTT, the figures for the binding signal with ELK3, in the test with SPIC and with ETV3 were 1.12, 1.13 and 1.15, respectively.

As for GTAAAC, the binding signal in the test with ELK3 is 1.25; in the test with SPIC, 1.23; with ETV3, 1.3.

On to AATGAT, for which the binding signal in the test with SPIC was determined as 1.1; with ETV3 it was 1.21.

Regarding CCTAGA, the binding signal in the test with ELK3 came out at 0.984; in the test with SPIC, 0.894; in the test with ETV3, 0.979.

Take TTTCGA: the binding signal in the test with SPIC was 1.18; with ETV3, 1.41.

As to CGAGTT, the binding signal was found to be 1.14 in the test with ELK3, 0.883 with SPIC and 1.07 in the test with ETS2.

With AAGTTT, the binding signal in the test with ELK3 is 1.44; with SPIC, 1.29; in the test with ETV3, 1.53.

With ATGAGC, the binding signal in the test with ELK3 is 1.19; with SPIC it was 1.29; with ETS2, 1.26.

As to AACAGC, the binding signal turned out to be 1.05 with SPIC and 1.13 in the test with ETV3.

With TATCCT, the figures for the binding signal in the test with ELK3, with SPIC and with ETV3 were 1.76, 1.87 and 1.8, respectively.

Take GAAATA: the binding signal with ELK3 was 1.5; with SPIC, 1.43; with ETV3 it was 1.54.

Regarding AACCAT, the binding signal with SPIC was 0.999; in the test with ETV3, 1.16.

On to TTATAG, for which the binding signal with ELK3 came out at 1.03; with SPIC, 1.38; with ETV3, 0.985.

On to ACATTC, for which the results for the binding signal with SPIC and in the test with ETV3 were 1.22 and 1.31, respectively.

Consider ATGATT, for which the figures for the binding signal with SPIC and with ETV3 were 1.17 and 1.3, respectively.

On to GATGAC, for which the figures for the binding signal with SPIC and in the test with ETV3 were 1.15 and 1.56, respectively.

In the case of CAAATT, the binding signal with SPIC is 1.16; with ETV3, 1.13.

In the case of TGTAAA, the binding signal in the test with ELK3 came to 1.09; in the test with SPIC, 1.24; with ETV3, 1.2.

Consider ATGGTT, for which the binding signal with SPIC turned out to be 1.33; in the test with ETV3, 1.34.

Take CCCCAT: the binding signal in the test with SPIC was determined as 1.41; in the test with ETV3, 1.31.

For the sequence AGACCT, the binding signal with SPIC is 0.977; with ETV3, 0.954.

Consider ATAGAA, for which the binding signal is 1.13 with ELK3, 1.03 with SPIC and 1.07 with ETS2.

Consider TTCCTC, for which the values for the binding signal with SPIC and in the test with ETV3 were 2.72 and 2.38, respectively.

On to AAGCGA, for which the values for the binding signal with ELK3, with SPIC and with ETS2 were 1.07, 0.877 and 1.05, respectively.

As for AGCTAA, the binding signal is 0.963 with SPIC and 1.1 in the test with ETV3.

As for CTTGGG, the binding signal with SPIC turned out to be 1.31; with ETV3, 1.26.

On to TACATT, for which the values for the binding signal with SPIC and with ETV3 were 0.99 and 1.2, respectively.

Turning to CGCCTT, the binding signal with SPIC is 1.47; with ETV3, 1.45.

Take TATTCA: the binding signal with SPIC came to 1.47; with ETV3, 1.23.

In the case of AGGTAT, the values for the binding signal with ELK3, with SPIC and in the test with ETV3 were 0.947, 0.921 and 1.11, respectively.

Regarding TAAGCT, the binding signal was 1.12 in the test with ELK3, 1.24 with SPIC and 1.2 with ETV3.

CGCCTC: the binding signal with ELK3 came out at 1.46; with SPIC, 1.33.

On to ATACAG, for which the results for the binding signal with SPIC and with ETV3 were 1.14 and 1.18, respectively.

As for TCTGTC, the binding signal in the test with SPIC worked out at 1.3; in the test with ETV3 it was 1.05.

For the sequence TAGCCC, the binding signal with ELK3 was determined as 1.24; with SPIC, 1.23; with ETS2, 1.14.

For CACTCT, the binding signal was determined as 1.22 with SPIC and 1.43 with ETV3.

Turning to TCTACG, the results for the binding signal with SPIC and in the test with ETV3 were 1.3 and 1.32, respectively.

In the case of ATCCTG, the binding signal was determined as 1.5 with ELK3, 1.19 with SPIC and 1.56 in the test with ETS2.

Regarding TACACG, the binding signal with ELK3 turned out to be 1.19; with SPIC, 0.957.

Turning to CCTGTT, the binding signal with ELK3 came to 1.94; with SPIC, 1.91.
